Reference: the supplement of paper PMC11732987, “Enantioselective OTUD7B fragment discovery through chemoproteomics screening and high-throughput optimisation” (Communications Chemistry, 2025)
The list shows a part of the results. The data scatter; read single values as rough.

By UniProt entry, the sequences of proteins in these tests, tags left out. Where a name states a change or a piece, a line headed by the entry shows the natural chain unless it says otherwise. Residues count along the entry.
UniProt Q9ULV3: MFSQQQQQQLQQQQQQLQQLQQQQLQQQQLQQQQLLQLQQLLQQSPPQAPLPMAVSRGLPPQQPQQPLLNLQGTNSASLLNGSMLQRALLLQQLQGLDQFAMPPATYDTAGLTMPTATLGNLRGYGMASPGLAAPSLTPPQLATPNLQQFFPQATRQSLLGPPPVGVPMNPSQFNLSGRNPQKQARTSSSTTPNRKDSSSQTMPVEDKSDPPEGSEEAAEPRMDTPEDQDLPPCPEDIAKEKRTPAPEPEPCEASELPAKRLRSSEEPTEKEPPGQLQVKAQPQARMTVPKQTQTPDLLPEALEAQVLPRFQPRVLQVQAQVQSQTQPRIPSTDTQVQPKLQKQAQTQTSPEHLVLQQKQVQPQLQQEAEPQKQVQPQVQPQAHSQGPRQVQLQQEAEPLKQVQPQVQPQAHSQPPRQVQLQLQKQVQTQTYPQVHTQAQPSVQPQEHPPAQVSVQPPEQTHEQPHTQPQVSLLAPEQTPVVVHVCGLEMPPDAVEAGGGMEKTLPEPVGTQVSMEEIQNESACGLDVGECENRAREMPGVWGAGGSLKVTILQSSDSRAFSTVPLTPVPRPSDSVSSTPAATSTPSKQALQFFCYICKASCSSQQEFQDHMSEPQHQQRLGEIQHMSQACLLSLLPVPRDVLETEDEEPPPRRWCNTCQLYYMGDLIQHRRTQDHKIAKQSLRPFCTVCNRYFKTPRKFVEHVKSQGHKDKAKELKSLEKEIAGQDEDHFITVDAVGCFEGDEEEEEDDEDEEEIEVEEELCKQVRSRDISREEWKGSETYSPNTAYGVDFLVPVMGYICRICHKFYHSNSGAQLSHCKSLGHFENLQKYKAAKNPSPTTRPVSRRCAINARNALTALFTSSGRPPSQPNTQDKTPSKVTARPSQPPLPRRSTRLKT
UniProt Q9HCK8, 2293-2314: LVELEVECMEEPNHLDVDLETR
UniProt P49760, whole entry, looked up: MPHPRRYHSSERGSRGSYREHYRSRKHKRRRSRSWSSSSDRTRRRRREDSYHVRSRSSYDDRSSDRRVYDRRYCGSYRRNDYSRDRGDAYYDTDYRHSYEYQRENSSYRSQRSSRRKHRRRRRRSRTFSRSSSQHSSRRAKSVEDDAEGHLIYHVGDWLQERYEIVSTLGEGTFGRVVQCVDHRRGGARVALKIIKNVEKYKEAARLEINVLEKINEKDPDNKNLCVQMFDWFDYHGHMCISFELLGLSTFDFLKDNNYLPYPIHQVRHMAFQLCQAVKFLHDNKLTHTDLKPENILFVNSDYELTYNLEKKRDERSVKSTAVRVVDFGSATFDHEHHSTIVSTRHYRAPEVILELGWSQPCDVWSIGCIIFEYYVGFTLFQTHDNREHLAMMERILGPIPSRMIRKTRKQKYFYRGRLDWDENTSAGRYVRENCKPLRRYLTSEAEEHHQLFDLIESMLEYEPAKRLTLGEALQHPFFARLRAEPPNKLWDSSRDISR
UniProt Q9Y2V7, 2-37: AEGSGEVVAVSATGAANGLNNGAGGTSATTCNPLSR
UniProt Q9Y2V7, 332-358: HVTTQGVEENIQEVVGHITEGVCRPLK
UniProt Q9P2D1: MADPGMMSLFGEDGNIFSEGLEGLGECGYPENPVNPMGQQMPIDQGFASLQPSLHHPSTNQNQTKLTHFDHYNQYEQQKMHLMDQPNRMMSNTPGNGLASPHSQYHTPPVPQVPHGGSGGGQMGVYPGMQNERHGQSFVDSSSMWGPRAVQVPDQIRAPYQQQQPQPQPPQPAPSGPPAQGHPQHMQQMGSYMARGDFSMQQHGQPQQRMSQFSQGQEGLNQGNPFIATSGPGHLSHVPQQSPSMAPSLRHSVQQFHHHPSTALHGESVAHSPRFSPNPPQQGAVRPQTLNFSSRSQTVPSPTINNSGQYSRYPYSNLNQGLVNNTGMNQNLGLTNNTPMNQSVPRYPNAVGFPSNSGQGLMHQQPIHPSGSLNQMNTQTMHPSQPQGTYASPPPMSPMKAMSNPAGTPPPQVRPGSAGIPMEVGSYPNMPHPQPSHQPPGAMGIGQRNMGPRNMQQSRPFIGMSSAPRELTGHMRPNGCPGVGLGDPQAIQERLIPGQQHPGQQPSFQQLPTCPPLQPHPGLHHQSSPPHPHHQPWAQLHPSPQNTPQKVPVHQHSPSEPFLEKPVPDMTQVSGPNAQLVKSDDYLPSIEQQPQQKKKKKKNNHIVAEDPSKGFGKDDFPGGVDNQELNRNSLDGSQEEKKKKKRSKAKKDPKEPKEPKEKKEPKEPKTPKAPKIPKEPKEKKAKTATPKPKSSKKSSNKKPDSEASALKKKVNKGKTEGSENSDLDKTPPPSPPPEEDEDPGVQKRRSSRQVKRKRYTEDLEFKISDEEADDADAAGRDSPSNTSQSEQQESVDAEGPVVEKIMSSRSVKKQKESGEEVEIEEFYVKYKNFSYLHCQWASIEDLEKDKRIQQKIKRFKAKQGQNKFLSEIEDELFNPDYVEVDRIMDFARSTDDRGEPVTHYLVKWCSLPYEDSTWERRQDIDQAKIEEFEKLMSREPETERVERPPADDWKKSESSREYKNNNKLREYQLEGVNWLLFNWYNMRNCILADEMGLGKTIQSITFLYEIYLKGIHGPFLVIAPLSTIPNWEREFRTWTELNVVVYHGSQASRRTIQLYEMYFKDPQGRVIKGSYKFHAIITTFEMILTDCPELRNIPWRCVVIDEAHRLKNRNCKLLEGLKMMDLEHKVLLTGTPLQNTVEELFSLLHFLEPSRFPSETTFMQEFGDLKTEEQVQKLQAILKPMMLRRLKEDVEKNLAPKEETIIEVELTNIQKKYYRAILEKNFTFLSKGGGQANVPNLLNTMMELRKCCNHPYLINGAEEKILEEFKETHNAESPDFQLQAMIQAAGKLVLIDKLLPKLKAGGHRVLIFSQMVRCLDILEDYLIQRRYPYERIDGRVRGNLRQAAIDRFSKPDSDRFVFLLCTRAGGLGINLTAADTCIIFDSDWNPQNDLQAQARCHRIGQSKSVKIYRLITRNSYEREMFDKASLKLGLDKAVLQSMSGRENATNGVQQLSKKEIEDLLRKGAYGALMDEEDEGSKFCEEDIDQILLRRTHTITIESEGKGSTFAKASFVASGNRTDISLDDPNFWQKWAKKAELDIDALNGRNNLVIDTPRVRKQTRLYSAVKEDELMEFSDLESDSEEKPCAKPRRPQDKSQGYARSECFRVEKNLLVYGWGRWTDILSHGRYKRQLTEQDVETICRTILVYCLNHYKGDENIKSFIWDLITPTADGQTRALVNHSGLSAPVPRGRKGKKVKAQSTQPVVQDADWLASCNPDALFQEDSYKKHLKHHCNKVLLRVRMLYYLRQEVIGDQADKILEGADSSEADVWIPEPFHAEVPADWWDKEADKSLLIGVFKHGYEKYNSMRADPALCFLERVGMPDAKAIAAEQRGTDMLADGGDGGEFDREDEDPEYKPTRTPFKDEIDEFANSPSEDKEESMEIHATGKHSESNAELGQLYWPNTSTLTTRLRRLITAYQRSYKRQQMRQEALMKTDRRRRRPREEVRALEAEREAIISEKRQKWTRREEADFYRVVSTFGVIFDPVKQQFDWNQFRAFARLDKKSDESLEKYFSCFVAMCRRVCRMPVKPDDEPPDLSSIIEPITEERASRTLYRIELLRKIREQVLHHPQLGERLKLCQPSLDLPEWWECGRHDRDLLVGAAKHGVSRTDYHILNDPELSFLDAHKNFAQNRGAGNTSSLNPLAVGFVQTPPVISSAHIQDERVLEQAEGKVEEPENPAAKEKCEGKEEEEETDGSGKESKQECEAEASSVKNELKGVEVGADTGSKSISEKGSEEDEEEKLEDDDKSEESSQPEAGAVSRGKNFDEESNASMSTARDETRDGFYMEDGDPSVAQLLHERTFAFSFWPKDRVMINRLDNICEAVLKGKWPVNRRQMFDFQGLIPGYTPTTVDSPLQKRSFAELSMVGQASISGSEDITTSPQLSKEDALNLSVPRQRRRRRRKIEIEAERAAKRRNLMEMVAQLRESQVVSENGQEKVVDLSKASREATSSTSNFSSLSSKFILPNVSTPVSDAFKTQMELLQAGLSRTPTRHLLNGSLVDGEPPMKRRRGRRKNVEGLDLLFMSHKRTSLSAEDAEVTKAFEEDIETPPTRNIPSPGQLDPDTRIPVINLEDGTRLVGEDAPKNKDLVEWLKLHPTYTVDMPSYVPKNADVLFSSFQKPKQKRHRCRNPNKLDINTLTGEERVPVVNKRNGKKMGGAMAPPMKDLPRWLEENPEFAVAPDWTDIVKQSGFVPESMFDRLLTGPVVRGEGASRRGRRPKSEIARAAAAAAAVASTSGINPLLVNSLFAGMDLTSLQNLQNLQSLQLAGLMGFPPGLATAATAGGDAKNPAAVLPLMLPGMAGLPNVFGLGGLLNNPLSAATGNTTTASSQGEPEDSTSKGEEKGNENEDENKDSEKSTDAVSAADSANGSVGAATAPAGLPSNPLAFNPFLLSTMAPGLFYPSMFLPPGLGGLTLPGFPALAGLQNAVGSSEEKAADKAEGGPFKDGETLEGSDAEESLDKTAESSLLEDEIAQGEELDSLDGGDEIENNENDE
UniProt Q9UKF6: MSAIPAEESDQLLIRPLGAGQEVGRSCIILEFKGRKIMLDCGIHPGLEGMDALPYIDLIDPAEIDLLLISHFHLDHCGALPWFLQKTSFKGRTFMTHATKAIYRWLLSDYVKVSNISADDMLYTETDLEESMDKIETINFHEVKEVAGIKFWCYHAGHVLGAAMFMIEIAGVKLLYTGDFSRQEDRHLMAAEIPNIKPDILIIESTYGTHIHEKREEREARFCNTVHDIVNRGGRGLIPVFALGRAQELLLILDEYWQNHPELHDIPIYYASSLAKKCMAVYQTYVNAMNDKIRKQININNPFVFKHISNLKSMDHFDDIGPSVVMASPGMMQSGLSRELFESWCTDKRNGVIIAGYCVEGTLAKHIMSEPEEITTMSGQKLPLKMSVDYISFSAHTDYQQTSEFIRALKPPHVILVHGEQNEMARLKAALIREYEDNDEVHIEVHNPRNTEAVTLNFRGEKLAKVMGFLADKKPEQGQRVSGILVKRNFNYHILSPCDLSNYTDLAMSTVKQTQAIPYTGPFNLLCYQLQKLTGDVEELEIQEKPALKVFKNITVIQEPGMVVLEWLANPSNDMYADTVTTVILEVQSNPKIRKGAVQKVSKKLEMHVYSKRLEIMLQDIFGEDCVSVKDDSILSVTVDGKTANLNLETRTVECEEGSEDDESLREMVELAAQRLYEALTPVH
UniProt Q96MW5: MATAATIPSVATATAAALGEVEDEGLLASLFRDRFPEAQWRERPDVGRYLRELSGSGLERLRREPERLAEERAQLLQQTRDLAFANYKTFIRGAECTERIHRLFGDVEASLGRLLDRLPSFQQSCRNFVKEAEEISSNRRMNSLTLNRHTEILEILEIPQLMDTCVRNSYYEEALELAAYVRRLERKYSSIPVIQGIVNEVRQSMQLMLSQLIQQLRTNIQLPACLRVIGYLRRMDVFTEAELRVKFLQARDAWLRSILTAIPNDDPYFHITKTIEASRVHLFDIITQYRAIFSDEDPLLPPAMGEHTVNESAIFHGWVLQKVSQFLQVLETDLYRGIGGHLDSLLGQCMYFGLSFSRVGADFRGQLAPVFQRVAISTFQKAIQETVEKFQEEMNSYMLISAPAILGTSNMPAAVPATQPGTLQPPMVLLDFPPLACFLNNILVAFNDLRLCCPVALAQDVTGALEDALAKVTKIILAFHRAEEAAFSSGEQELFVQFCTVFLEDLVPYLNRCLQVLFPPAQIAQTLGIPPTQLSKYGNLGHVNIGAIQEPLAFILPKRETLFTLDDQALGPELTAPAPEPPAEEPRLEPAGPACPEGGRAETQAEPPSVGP
UniProt P51790: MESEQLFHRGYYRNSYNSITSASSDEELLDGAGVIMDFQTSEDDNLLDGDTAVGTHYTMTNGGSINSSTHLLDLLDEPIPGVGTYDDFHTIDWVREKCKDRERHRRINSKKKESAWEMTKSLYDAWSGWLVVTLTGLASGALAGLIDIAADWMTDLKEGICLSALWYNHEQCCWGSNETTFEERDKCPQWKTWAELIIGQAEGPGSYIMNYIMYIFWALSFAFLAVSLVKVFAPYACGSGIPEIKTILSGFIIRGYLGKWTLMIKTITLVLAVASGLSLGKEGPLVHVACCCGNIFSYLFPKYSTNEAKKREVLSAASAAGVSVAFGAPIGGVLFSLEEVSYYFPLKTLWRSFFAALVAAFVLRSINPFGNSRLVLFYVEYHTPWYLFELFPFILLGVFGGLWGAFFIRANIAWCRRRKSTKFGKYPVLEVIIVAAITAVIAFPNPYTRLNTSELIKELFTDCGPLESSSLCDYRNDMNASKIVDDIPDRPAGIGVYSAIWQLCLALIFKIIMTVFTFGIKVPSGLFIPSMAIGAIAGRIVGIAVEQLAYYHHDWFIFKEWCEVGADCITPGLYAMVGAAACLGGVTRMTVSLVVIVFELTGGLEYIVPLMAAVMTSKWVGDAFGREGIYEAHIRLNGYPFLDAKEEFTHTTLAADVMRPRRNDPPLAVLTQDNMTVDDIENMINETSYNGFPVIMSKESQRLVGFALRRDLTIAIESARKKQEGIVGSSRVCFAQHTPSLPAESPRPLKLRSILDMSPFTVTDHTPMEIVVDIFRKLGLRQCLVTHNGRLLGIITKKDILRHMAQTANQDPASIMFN

Legend:
[1] = compound: ClCC(=O)N[C@@H]1CCCc2ccccc12; test: log2 mean competition ratio of IA-DTB cysteine labelling (DMSO/compound) (log2 ratio); higher = stronger cysteine engagement by compound; conditions: treatment time: 4 h, cell line lysate: HEK293T
Experimental: (§1)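 IA-DTB competitive cysteine chemoproteomics in HEK293T RIPA lysate. Lysates were treated with compound 29 or 30 at 50 or 200 µM for 4 h, then IA-DTB (500 µM, 1 h), trypsin-digested, NeutrAvidin-enriched and analysed by diaPASEF. Competition ratio = intensity DMSO / intensity compound (n=4 treated, n=64 DMSO); binding: mean log2 CR ≥ 1 and p ≤ 0.05 plus QC filters. Target is the cysteine site.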

[2] = compound: ClCC(=O)N[C@H]1CCCc2ccccc12; test: as above; conditions: treatment time: 4 h, cell line lysate: HEK293T
Experimental: as §1

Target | log2 mean competition ratio ([1]; 50 µM) | log2 mean competition ratio ([1]; 200 µM) | log2 mean competition ratio ([2]; 50 µM) | log2 mean competition ratio ([2]; 200 µM)
CIZ1 C234 (UniProt Q9ULV3) | 0.141 | -0.098 | -0.12 | 0.406
CNST C408 (UniProt Q6PJW8) | -0.256 | 0.316 | -0.495 | 0.061
CORO7 C695 (UniProt P57737) | -0.295 | -0.311 | -0.491 | -0.00535
CHD8 C2378 (UniProt Q9HCK8) | 0.29 | 0.0432 | 0.0832 | 0.173
CPSF2 C346 (UniProt Q9P2I0) | -0.446 | -0.126 | -0.339 | 0.293
COPG1 C813 (UniProt Q9Y678) | -0.0302 | -0.0654 | -0.246 | -0.0603
CLINT1 C231 (UniProt Q14677) | -0.176 | 0.678 | -0.32 | 0.0569
CPT1A C742 (UniProt P50416) | 0.0459 | -0.141 | -0.159 | -0.129
CLK2 C180 (UniProt P49760) | -0.0934 | -0.0793 | -0.248 | -0.0506
COG4 C25 (UniProt Q9H9E3) | -0.0226 | 0.268 | -0.354 | 0.183
CHORDC1 C211 (UniProt Q9UHD1) | -0.231 | 0.108 | -0.417 | 0.107
COG6 C32 (UniProt Q9Y2V7) | -0.231 | -0.264 | -0.538 | -0.502
CHD8 C1655 (UniProt Q9HCK8) | -0.112 | 0.045 | -0.311 | 0.0883
CPS1 C761 (UniProt P31327) | 0.237 | -0.0357 | 0.517 | -0.058
CLASP2 C528 (UniProt O75122) | 0.197 | 0.121 | 0.0854 | -0.0145
CLK3 C294 (UniProt P49761) | 0.0193 | 0.25 | -0.0717 | 0.122
COPA C522 (UniProt P53621) | 0.185 | -0.0244 | -0.563 | -0.371
CPSF6 C159 (UniProt Q16630) | -0.126 | -0.0504 | 0.156 | -0.0954
CKAP4 C100 (UniProt Q07065) | -0.184 | 0.435 | -0.499 | 0.386
CLK4 C81 (UniProt Q9HAZ1) | -0.0114 | 0.0048 | -0.715 | -0.104
COX20 C29 (UniProt Q5RI15) | 0.0941 | 0.476 | -0.12 | 0.49
CHD7 C2324 (UniProt Q9P2D1) |  | -0.469 | 0.309 | -0.0866
CIAO1 C212 (UniProt O76071) | -0.215 | 0.0338 | -0.236 | 0.112
CORO2A C335 (UniProt Q92828) | -0.0657 | -0.17 | -0.423 | -0.203

Laid out differently: results already given
Target	log2 mean competition ratio ([1]; 50 µM)	log2 mean competition ratio ([1]; 200 µM)	log2 mean competition ratio ([2]; 50 µM)	log2 mean competition ratio ([2]; 200 µM)
CLK3 C294 (UniProt P49761)	0.0193	0.25	-0.0717	0.122
COPA C522 (UniProt P53621)	0.185	-0.0244	-0.563	-0.371
CPSF6 C159 (UniProt Q16630)	-0.126	-0.0504	0.156	-0.0954
CKAP4 C100 (UniProt Q07065)	-0.184	0.435	-0.499	0.386
CLK4 C81 (UniProt Q9HAZ1)	-0.0114	0.0048	-0.715	-0.104
COX20 C29 (UniProt Q5RI15)	0.0941	0.476	-0.12	0.49
CHD7 C2324 (UniProt Q9P2D1)		-0.469	0.309	-0.0866
CIAO1 C212 (UniProt O76071)	-0.215	0.0338	-0.236	0.112
CORO2A C335 (UniProt Q92828)	-0.0657	-0.17	-0.423	-0.203

Further records.

Target | log2 mean competition ratio ([1]; 50 µM) | log2 mean competition ratio ([1]; 200 µM) | log2 mean competition ratio ([2]; 50 µM) | log2 mean competition ratio ([2]; 200 µM)
COG7 C174 (UniProt P83436) | 0.426 | 1.03 | 0.257 | 0.671
CPSF3 C223 (UniProt Q9UKF6) | 0.0967 | 0.0401 | -0.789 | -0.0642
COG8 C595 (UniProt Q96MW5) | -0.0384 | -0.168 | 0.0417 | -0.18
CHD8 C2300 (UniProt Q9HCK8) | -0.569 |  | -0.43 | -0.272
CNOT1 C50 (UniProt A5YKK6) | 0.161 | -0.0149 | -0.0717 | 0.0292
CLCN3 C783 (UniProt P51790) | 0.222 | 0.173 | -0.116 | -0.0169
COLGALT1 C369 (UniProt Q8NBJ5) | -0.184 | 0.189 | -0.282 | 0.153
CKAP5 C619 (UniProt Q14008) | 0.27 | 0.267 | -0.101 | 0.234
COBL C993 (UniProt O75128) | 0.0174 | 0.00319 | 0.0475 | -0.0249
CLIP1 C1022 | -0.0849 | -0.0771 | -0.0649 | -0.209
CNN2 C175 (UniProt Q99439) | 0.559 | 0.0717 | 0.371 | 0.053
CKAP5 C1203 (UniProt Q14008) | 0.154 | -0.0833 | 0.522 | -0.124
CHPF2 C42 (UniProt Q9P2E5) | -0.191 | 0.336 | -0.0503 | 0.466
CRAMP1 C579 (UniProt Q96RY5) | 0.321 | -0.121 | -0.123 | -0.169
COQ8B C293 (UniProt Q96D53) | -0.0221 | 0.092 | 0.322 | 0.0814
COPS7B C240 (UniProt Q9H9Q2) | 0.00674 | -0.165 | -0.206 | -0.237
COLEC12 C371 | -0.0683 | -0.0458 | 0.168 | 0.202
CLUH C184 | 0.000718 | -0.0964 | -0.723 | -0.193
CHEK2 C539 (UniProt O96017) | 0.0887 | -0.0704 | 0.686 | -0.00889
COG6 C354 (UniProt Q9Y2V7) | 0.232 | -0.154 | 0.0277 | 0.0161
CNOT6 C451 (UniProt Q9ULM6) | 0.13 | 0.0344 | -0.108 | 0.0179
CPNE3 C54 (UniProt O75131) | 0.447 | -0.228 | 0.303 | 0.194
CPNE3 C385 (UniProt O75131) | -0.417 | -0.149 | -0.208 | -0.147
CMIP C455 (UniProt Q8IY22) | -0.0422 | 0.0712 | -0.506 | 0.0803
